## Percent effect of library compounds

Protein sequences, listed by entry. Tags and fused reporters are not part of them. Residues count along the entry.
UniProt Q4DA54, 1-478: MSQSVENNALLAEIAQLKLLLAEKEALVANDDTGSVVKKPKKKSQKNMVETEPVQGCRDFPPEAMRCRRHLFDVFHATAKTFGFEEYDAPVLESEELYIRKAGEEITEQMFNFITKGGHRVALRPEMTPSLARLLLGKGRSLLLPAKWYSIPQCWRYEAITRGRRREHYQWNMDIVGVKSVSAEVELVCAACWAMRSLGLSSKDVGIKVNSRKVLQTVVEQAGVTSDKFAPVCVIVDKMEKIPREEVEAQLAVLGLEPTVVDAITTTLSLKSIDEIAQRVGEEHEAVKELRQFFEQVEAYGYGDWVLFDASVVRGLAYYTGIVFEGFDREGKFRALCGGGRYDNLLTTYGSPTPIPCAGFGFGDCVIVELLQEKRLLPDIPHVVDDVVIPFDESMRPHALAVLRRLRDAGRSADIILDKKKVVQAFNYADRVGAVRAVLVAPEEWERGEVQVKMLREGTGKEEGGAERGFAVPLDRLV
UniProt P9WFT3, whole entry: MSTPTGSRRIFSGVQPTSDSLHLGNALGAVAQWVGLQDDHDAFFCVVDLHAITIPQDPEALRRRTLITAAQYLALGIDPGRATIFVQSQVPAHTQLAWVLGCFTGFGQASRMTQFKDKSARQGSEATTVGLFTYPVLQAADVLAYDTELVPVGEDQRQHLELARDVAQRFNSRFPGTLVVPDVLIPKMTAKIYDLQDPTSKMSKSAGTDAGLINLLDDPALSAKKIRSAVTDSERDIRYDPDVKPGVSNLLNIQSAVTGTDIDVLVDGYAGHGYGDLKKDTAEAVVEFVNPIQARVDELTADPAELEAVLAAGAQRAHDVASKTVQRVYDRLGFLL
UniProt I6X8D2, whole entry: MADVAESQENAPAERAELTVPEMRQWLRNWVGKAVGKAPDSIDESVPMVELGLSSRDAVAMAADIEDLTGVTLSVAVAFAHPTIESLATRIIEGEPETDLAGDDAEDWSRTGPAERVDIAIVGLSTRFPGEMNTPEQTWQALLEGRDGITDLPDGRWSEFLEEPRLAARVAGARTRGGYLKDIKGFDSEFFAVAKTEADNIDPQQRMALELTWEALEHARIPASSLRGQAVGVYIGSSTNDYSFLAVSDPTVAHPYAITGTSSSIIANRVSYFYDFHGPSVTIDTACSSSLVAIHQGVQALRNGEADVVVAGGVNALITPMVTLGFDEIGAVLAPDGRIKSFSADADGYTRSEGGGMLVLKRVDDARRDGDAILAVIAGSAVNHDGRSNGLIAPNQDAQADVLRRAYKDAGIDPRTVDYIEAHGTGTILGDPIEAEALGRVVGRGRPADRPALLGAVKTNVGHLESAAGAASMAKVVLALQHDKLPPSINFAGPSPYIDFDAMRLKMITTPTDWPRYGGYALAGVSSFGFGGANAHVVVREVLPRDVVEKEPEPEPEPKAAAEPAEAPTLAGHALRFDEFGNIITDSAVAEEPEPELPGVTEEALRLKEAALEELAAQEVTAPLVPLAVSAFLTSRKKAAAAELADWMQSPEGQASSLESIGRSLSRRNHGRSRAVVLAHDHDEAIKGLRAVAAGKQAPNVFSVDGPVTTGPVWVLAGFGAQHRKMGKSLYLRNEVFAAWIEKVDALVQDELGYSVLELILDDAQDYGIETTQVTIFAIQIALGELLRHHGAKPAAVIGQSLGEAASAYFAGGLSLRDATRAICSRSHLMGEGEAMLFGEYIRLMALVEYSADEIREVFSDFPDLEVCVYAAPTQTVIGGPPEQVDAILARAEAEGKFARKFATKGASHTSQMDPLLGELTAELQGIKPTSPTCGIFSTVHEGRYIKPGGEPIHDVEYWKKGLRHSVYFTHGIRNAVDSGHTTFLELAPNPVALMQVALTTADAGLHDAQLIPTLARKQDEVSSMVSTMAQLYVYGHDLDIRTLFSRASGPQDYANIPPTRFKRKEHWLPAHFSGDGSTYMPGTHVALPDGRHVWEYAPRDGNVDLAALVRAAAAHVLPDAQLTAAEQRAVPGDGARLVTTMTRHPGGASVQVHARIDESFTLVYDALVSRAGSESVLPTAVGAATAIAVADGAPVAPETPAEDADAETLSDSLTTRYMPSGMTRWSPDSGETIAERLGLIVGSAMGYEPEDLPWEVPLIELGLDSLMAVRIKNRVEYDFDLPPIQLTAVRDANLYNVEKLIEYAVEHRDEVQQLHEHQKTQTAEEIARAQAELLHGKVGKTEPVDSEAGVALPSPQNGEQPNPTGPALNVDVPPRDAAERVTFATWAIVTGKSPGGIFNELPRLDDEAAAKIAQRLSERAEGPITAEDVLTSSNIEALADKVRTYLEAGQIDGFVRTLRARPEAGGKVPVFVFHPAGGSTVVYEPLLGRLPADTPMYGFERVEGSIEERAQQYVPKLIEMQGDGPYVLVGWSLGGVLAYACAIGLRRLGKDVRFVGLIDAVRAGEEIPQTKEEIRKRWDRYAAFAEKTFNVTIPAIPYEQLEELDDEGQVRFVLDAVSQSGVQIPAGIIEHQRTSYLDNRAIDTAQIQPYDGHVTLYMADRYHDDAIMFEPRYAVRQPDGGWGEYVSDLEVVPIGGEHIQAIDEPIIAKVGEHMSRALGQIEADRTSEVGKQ
UniProt Q8IDJ8, 1-583: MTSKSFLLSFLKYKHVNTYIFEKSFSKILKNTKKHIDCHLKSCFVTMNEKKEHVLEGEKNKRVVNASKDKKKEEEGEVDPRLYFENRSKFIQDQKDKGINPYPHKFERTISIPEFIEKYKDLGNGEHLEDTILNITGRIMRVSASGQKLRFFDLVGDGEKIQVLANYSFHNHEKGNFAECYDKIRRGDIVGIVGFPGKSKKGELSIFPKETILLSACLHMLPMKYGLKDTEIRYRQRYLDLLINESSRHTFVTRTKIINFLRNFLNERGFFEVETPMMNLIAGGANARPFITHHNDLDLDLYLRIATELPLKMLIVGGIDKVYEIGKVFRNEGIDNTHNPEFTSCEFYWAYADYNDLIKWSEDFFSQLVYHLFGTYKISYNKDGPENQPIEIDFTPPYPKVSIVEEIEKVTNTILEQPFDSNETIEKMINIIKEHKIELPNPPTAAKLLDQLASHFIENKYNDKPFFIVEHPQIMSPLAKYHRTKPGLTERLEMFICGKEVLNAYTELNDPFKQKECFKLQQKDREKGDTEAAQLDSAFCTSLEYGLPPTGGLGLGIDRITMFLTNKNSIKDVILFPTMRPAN

The values are deposited in ChEMBL (CHEMBL3988442, “University of Dundee, Small-Polar-MMV Screening Library” (2021)).

Results are given as percent effect.
The record does not define 0% and 100%; most values in the screen are far below 50% and negative numbers occur (in some assays of this library far below -100).
Compounds were drawn at random from those tested, without regard to their results.
A dash means the value is not listed here; it may have been measured.

TcHisRS: 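Enzyme assay of histidyl-tRNA synthetase; the read-out is not stated. Target: Histidine-tRNA ligase, Trypanosoma cruzi CL Brener (UniProt Q4DA54). Tested at 30 µM. Higher reads as stronger inhibition (inferred: compounds with an IC50 in retests scored well above the rest). Size under these conditions: about 69,000 compounds, about 31 of them at 50% or above in at least one test.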
MtTrpRS: 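Enzyme assay of tryptophanyl-tRNA synthetase; the read-out is not stated. Target: Tryptophan-tRNA ligase, Mycobacterium tuberculosis (UniProt P9WFT3). Concentration: 10 µM. Higher most likely means stronger inhibition; the record gives no direction and few retests gave an IC50. About 65,000 compounds were tested under these conditions; 0.098% (about 64) showed 50% or more at least once.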
Pks13 thioesterase: 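Enzyme assay of the thioesterase domain of polyketide synthase 13; the read-out is not stated. Target: Polyketide synthase Pks13, Mycobacterium tuberculosis (UniProt I6X8D2). Concentration: 30 µM. Higher reads as stronger inhibition (inferred from which compounds were picked for retests). Of about 67,000 compounds tested this way, about 300 (0.46%) reached 50% or more in at least one test.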
PfKRS1: 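Lysine-tRNA ligase, Plasmodium falciparum 3D7 (UniProt Q8IDJ8). Enzyme assay of the cytosolic lysyl-tRNA synthetase in 384-well plates, read by luminescence. Compounds at 30 µM. Higher reads as stronger inhibition, judged from the few compounds that gave an IC50. About 69,000 compounds were tested under these conditions; 0.071% (about 49) showed 50% or more at least once.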
Toxoplasma: 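Assay of Toxoplasma gondii numbers, read through their beta-galactosidase reporter with a colour substrate. Compounds at 10 µM. The record gives no direction; the compounds picked for IC50 retests had high values, so higher reads as fewer parasites. About 67,000 compounds were tested under these conditions; 0.38% (about 260) showed 50% or more at least once.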

| structure | TcHisRS | MtTrpRS | Pks13 thioesterase | PfKRS1 | Toxoplasma |
|---|---|---|---|---|---|
| `Cc1ncsc1CCN(C)C(=O)c1ccc(CN2CCCCC2)cc1` | 9.524 | -0.7389 | 4.79 | 2.174 | -14.19 |
| `Cc1csc(N2CCN(C(=O)C3(C#N)CCCCC3)CC2)n1` | 3.55 | -1.067 | -3.798 | -2.03 | -1.049 |
| `CS(=O)(=O)c1cccc(C(=O)NCC2(c3ccccc3)CC2)c1` | 7.563 | -5.932 | -1.93 | 6.568 | 0.3601 |
| `O=C1NCCO[C@H]2CN(C(=O)Cc3cccs3)CC[C@@H]12` | 9.278 | -0.7359 | -11.38 | 3.812 | - |
| `[H][C@@]12CCN(C)[C@]1([H])CN(C(=O)c1csc(Cc3ccccc3)n1)C2` | - | - | - | - | -15.9 |
| `CNC(=O)C1Cn2ccnc2C2(CCN(Cc3cccs3)CC2)O1.O=C(O)C(F)(F)F.O=C(O)C(F)(F)F` (configuration not stated) | - | - | - | - | -12.85 |
| `CCN(C)C(=O)[C@H]1C[C@@](CC(C)C)(C(=O)OC)N(C)[C@H]1c1cccnc1` | 9.392 | 6.552 | -23.11 | 2.752 | 3.49 |
| `CCNc1cc2c(nn1)CCN(C(=O)c1ccsc1)C2` | 9.467 | -5.085 | -1.957 | -0.582 | -6.123 |
| `COC(=O)N1CCC(Nc2cccc(F)c2C(C)=O)CC1` | 0 | -3.749 | -22.69 | 0.4882 | 11.17 |
| `N#Cc1ccc(SCCOCCO)c(F)c1` | 13.79 | 0.9336 | 9.121 | 7.951 | -0.3743 |
| `CCc1noc(CN(CC(=O)N2CCCCC2)c2ccc(C)cc2)n1` | 6.145 | -1.143 | -31.14 | 3.104 | -5.862 |
| `CO[C@H]1COCCN(C(=O)c2ccc(F)cc2)C1` | 1.493 | 0.5339 | -22.85 | 8.793 | 0.7685 |
| `COc1nccnc1N1CCN(Cc2cccc(F)c2)C(=O)C1` | 5.941 | 8.916 | 18.38 | 0.2247 | 5.847 |
| `CN(Cc1noc(C2CC2)n1)C1CCN(CCc2cnn(C)c2)C1` (configuration not stated) | 2.26 | 8.403 | -5.054 | 0.1811 | -0.7549 |
| `COc1cc(S(=O)(=O)Nc2cn[nH]c2)ccc1Br` | 9.244 | -4.479 | -3.608 | 2.772 | 0.12 |
| `O=C(O)C(F)(F)F.O=C(O)C(F)(F)F.[H][C@@]12CN(Cc3ccccn3)C[C@H](C(=O)Nc3cccnc3)[C@]1([H])CCO2` | - | - | - | - | 6.099 |
| `CNC(=O)Nc1cnc2cc(Cl)ccc2c1O` | -35.11 | - | -33.27 | -1.706 | 18.53 |
| `CCN(CC)C(=O)Cn1nc(C(C)C)c2cnn(C(C)(C)C)c2c1=O` | 0 | 2.189 | -42.88 | -2.713 | -14.98 |
| `COc1ccc2c(c1)CCCN2Cc1nc2c(cnn2C)c(=O)[nH]1` | 1.504 | -0.07868 | -18.99 | 3.33 | - |
| `Cc1cnn(CCNCc2cc(C#N)ccc2F)c1` | 6.706 | 23.03 | -21.26 | -3.433 | 13.51 |
| `CCN(CC)CC(=O)N1CCN(CCCc2ccncc2)CC1` | 4.217 | 2.119 | -2.854 | 2.161 | 12.34 |
| `O=C(O)CC[C@@H]1CN(c2ncnc3[nH]ccc23)CC[C@@H]1N1CCOCC1` | -1.266 | -2.169 | -10.47 | -0.04751 | 2.393 |
| `CCN(CCO)C(=O)C1CCC(=O)N(Cc2cccc(OC)c2)C1` (configuration not stated) | -2.564 | 0.8258 | -6.339 | 6.549 | -5.193 |
| `Cc1ccc(C(=O)N2CCCC(NC(=O)C(C)C)C2)c(O)c1` (configuration not stated) | 3.008 | -3.365 | 0.3145 | -2.36 | 10.86 |
| `Cc1ccc2c(n1)N(CC(C)C)CCN(S(C)(=O)=O)C2.O=C(O)C(F)(F)F` | - | - | - | - | 0.05882 |
| `O=S(=O)(NCCNc1ccc(-n2cccc2)nn1)c1cccs1` | 6.186 | 1.748 | -10.23 | 1.754 | 5.019 |
| `O=C1CC(c2ccccc2)C2(CCN(Cc3nccs3)CC2)N1` (configuration not stated) | 6.25 | -4.809 | -13.69 | 3.221 | - |
| `CNc1nc(CNC(=O)Nc2ccc(OC(C)C)cc2C)cs1` | 13.29 | -9.637 | 9.648 | 6.761 | -4.146 |
| `CCc1nc(N2CCN(c3ncccc3C#N)CC2)c2cnn(C)c2n1` | 7.229 | 2.974 | -8.586 | -0.07272 | 6.687 |
| `Cc1nc(CN(C)C2CCN(CCCOc3ccccc3)C2)no1` (configuration not stated) | 2.662 | -1.394 | -5.495 | 1.248 | -2.447 |
| `CS(=O)(=O)N1CCC(c2ccncn2)CC1` | 3.042 | 0.6275 | -3.309 | -1.565 | 13.21 |
| `COc1cccc(Cn2ncnc2CCC(C)N2CCN(C)CC2)c1` (configuration not stated) | 1.786 | -1.088 | -10.47 | 3.956 | -11.36 |
| `COc1cc(CNCC(O)c2ccccc2)cc2c1OCO2` (configuration not stated) | 2.924 | -7.615 | -6.024 | 0.5273 | - |
| `CC(C(=O)NCCOc1ccc(F)cc1)n1cncn1` (configuration not stated) | 1.714 | -3.438 | -8.333 | 3.341 | 15.49 |
| `Cc1cc(CN2CCCC2Cn2cccn2)no1` (configuration not stated) | 4.118 | 1.976 | -10.55 | 2.108 | 1.749 |
| `COC(=O)c1cccc(C(=O)NCc2ccc3c(c2)CCCN3C)c1` | 4.871 | -4.969 | -14.56 | -1.97 | -8.337 |
| `CCCc1nn(Cc2csc(CC)n2)c(=O)o1` | 1.149 | -6.172 | -9.147 | 4.236 | -11.74 |
| `CCn1ccnc1CN1CCN(CCc2ccncc2)CC1C` (configuration not stated) | 2.242 | -1.485 | -8.559 | 7.611 | 31.87 |
| `Cc1ccc(NC(=O)c2ccc(=O)n(CC(=O)Nc3nccs3)n2)cc1` | -3 | 19.68 | -43.25 | 1.086 | 8.711 |
| `CCn1nc(C)c(NC(=O)CN2CC[C@H](CO)[C@@H](O)C2)c1C` | 1.288 | 0.2441 | -20.96 | 7.295 | 4.593 |
| `O=C(O)c1cc(S(=O)(=O)Nc2ccc(F)c(Cl)c2)cc2c1OCCO2` | 4.507 | 4.856 | -20.01 | -0.2489 | -15.89 |
| `Cc1cc(C)nc(Nc2ccc(C3CCCCN3)cn2)n1` (configuration not stated) | 2.308 | -1.019 | -18.81 | 3.879 | - |
| `Cn1cc(CN2CCn3cnc(COCC4CC4)c3C2)cn1.O=C(O)C(F)(F)F` | - | - | - | - | -0.6158 |
| `O=C1COc2ccc(S(=O)(=O)NC3CC3)c3c2N1CCC3` | 3.415 | 1.341 | -23.6 | 4.952 | -11.88 |
| `Cc1ccc(N(C)C2CCN(C(=O)c3n[nH]c4c3CCC4)CC2)nn1` | 7.182 | -4.025 | -25.5 | 1.494 | 1.163 |
| `Cc1nn(C)cc1-c1cc(C(F)(F)F)n(CCCN)n1` | -19.65 | - | 0.5717 | 2.97 | 0.7696 |
| `CN(C)CC(=O)N1CCC2(CCc3cc(-c4cccnc4)ccc32)CC1` | 6.897 | -2.379 | -34.31 | -0.8343 | - |
| `[H][C@@]12CCC(=O)N(CCN)[C@]1([H])CCN(Cc1ccc3occc3c1)C2` | - | - | - | - | -1.888 |
| `CC(=O)c1cn(CC(=O)N2CCC3(CC2)OCCO3)c2ccccc12` | 7.792 | -1.698 | -29.22 | 0.0856 | -0.5408 |
| `Cn1cc(Br)cc1C(=O)NCC(C)(O)c1ccsc1` (configuration not stated) | 7.514 | 3.363 | -31.39 | 3.353 | -0.8011 |
| `CCn1c(CN2CCCC(O)(c3ccc(F)cc3)CC2)cnc1SC.O=C(O)CC(O)(CC(=O)O)C(=O)O` (configuration not stated) | - | - | - | - | -6.412 |
| `O=C(O)C(F)(F)F.[H][C@]12CC[C@@]3(N=C(CC)N(CC4CC4)C3=O)[C@@]1([H])CN(CC1CC1)C2` | - | - | - | - | -3.643 |
| `Cc1noc(CCNS(=O)(=O)N2CCCC2c2ccco2)n1` (configuration not stated) | 8.108 | -5.496 | 7.624 | -2.274 | -5.701 |
| `Cc1nc(CN2CCOC(CNc3cccnn3)C2)cs1` (configuration not stated) | 2.256 | -1.8 | 7.486 | 3.492 | -2.929 |
| `O=C(O)C(F)(F)F.O=C(O)C(F)(F)F.c1cc(CN2CCc3ncc(CN4CCOCC4)n3CC2)cs1` | - | - | - | - | 14.64 |
| `Cc1ccc(-c2nc(CN3CCN(CC(=O)N(C)C)CC3)cs2)o1` | 3.944 | -5.879 | -9.468 | -0.08745 | -4.367 |
| `Cc1cccc(S(=O)(=O)N2C[C@H]3C[C@H](C(=O)NC4CCC4)[C@@H](C2)O3)c1` | 8.589 | -1.26 | -23.41 | 2.092 | - |
| `CNC(=O)CN1CCC(OCC2CCCO2)CC1` (configuration not stated) | 8.333 | 2.279 | -7.395 | 3.143 | -1.25 |
| `CCOC(C)c1nc(CN2CCN(Cc3cccnc3)CC2)cs1` (configuration not stated) | 4.124 | 2.897 | -9.903 | 3.668 | -6.723 |
| `[H][C@]12CN(S(=O)(=O)c3ccc(C(=O)NCCSCC)cc3)[C@]([H])(CN1)C2` | - | - | - | - | -11.49 |
| `O=C(O)C(F)(F)F.O=C(O)C(F)(F)F.[H][C@@]12OCCC[C@]1([H])N(Cc1cnn(C)c1)C[C@@H]2N1CCOCC1` | - | - | - | - | 18.71 |
| `CC(Cn1cccn1)NC(=O)Nc1nnc(C2CC2)s1` (configuration not stated) | 1.527 | -0.5596 | -6.481 | -2.052 | 0 |

For reference, 5 entries once more:

- O=C1NCCO[C@H]2CN(C(=O)Cc3cccs3)CC[C@@H]12 | TcHisRS: 9.278%; MtTrpRS: -0.7359%; Pks13 thioesterase: -11.38%; PfKRS1: 3.812%
- O=C(O)C(F)(F)F.O=C(O)C(F)(F)F.[H][C@@]12OCCC[C@]1([H])N(Cc1cnn(C)c1)C[C@@H]2N1CCOCC1 | Toxoplasma: 18.71%
- CCN(C)C(=O)[C@H]1C[C@@](CC(C)C)(C(=O)OC)N(C)[C@H]1c1cccnc1 | TcHisRS: 9.392%; MtTrpRS: 6.552%; Pks13 thioesterase: -23.11%; PfKRS1: 2.752%; Toxoplasma: 3.49%
- CNC(=O)CN1CCC(OCC2CCCO2)CC1 (configuration not stated) | TcHisRS: 8.333%; MtTrpRS: 2.279%; Pks13 thioesterase: -7.395%; PfKRS1: 3.143%; Toxoplasma: -1.25%
- O=C(O)c1cc(S(=O)(=O)Nc2ccc(F)c(Cl)c2)cc2c1OCCO2 | TcHisRS: 4.507%; MtTrpRS: 4.856%; Pks13 thioesterase: -20.01%; PfKRS1: -0.2489%; Toxoplasma: -15.89%